These are yes or no findings as the source states them, for the method shown. Binding seen in cells or lysates may run through a third protein. Here binding means that the protein was enriched with, or labelled near, the bait; the list need not be complete.

To fix the notation:
B1: Leucine rich repeat protein (protein, UniProt C4MBQ9 1-335)
chain: MQQSQQHLGYNEIMIVSKYFEGINDFINLEMGVKRFQGNMERFHFNPIPLNQYSRKLFPNIETFHIYNKNDTKFQDGKIFKQVIWYEVNYQDYLKEKASGNDYKNVFINKDEKGVDLNNVPEPINGIGDNFYASSNMTELQLSPKIKRIGKNCFSHCDQLTKVTVPTSISVLSDSCFYHCGHITEIILSDAIQKLEDFCFAECYSLKSITLPLSIIKVGSRCFERCSSLTNLNIPGYHFTIGNRIYFNNAPLITMVIPSSVKTINELPINKIPEGQKIVIPKSVFSVSKMAFVDVDSKLISSDNTIPYIRKTIMDTIYQDAKERDGTYDKFSRIF
B2: Aldehyde-alcohol dehydrogenase (protein, UniProt Q24803 1-870)
chain: MSTQQTMTVDEHINQLVAKAQVALKEYLKPEYTQEKIDYIVKKASVAALDQHCALAAAAVEETGRGIFEDKATKNIFACEHVTHEMRHAKTVGIINVDPLYGITEIAEPVGVVCGVTPVTNPTSTAIFKSLISIKTRNPIVFSFHPSALKCSIMAAKIVRDAAISAGAPENCIQWIEFGGIEASNKLMNHPGVATILATGGNAMVKAAYSSGKPALGVGAGNVPTYIEKTCNIKQAANDVVMSKSFDNGMICASEQAAIIDKEIYDQVVEEMKTLGAYFINEEEKAKLEKFMFGVNAYSADVNNARLNPKCPGMSPQWFAEQVGIKVPEDCNIICAVCKEVGPNEPLTREKLSPVLAILKAENTQDGIDKAEAMVEFNGRGHSAAIHSNDKAVVEKYALTMKACRILHNTPSSQGGIGSIYNYIWPSFTLGCGSYGGNSVSANVTYHNLLNIKRLADRRNNLQWFRVPPKIFFEPHSIRYLAELKELSKIFIVSDRMMYKLGYVDRVMDVLKRRSNEVEIEIFIDVEPDPSIQTVQKGLAVMNTFGPDNIIAIGGGSAMDAAKIMWLLYEHPEADFFAMKQKFIDLRKRAFKFPTMGKKARLICIPTTSGTGSEVTPFAVISDHETGKKYPLADYSLTPSVAIVDPMFTMSLPKRAIADTGLDVLVHATEAYVSVMANEYTDGLAREAVKLVFENLLKSYNGDLEAREKMHNAATIAGMAFASAFLGMDHSMAHKVGAAFHLPHGRCVAVLLPHVIRYNGQKPRKLAMWPKYNFYKADQRYMELAQMVGLKCNTPAEGVEAFAKACEELMKATETITGFKQANIDEAAWMSKVPEMALLAFEDQCSPANPRVPMVKDMEKILKAAYYPIA
B3: 40S ribosomal protein S8 (protein, UniProt C4M0Q2 1-237)
chain: MGITRDSRHKRRATGGKKNSMQKKKKNTMGRQPANTRLGAIRVHDVRCRYGIIKRRALRLENGNFSWASQSITKGTKILNVVYNASDNDFVRTNTLVKGAIIEIDPAPFRLWFLKFYGKDIASTDYYKSLESATFKTEKKVVLPKEEENKEKTIAQQIAETQVALMNPSKTMQKKYAKKLEVLKNMKFDEALLEGFQSGRVLACISSRPGQTGSVEGYILEGKELDFYSKKISDKKK
B4: ATP-sulfurylase (protein, UniProt O76156 1-423)
chain: MSIQENLNNLIKPHGGKLIKTLKYGAERDECIKEAKSLPKIDISSREFGDLVMMGIGGFSPLNGFMKKEDWFSVCKNFTLADGTFWPIPITMSVSEEEAKKLKRGQKVALKYNKDINDISGTIEIDQVYEMTKKDKEMECKDIFTTTDSDHPGVKKVMEQKPFNVAGKVTTLSEGEFPIKYKGIYMTPEESRLNFAKKGWKTIAALQLRNPMHRSHEFLAKIAVEVCDGVFIHSLVGNLKPGDIPAEVRVKCIDALVDKYFVKKNVLQGGYPLDMRYGGPREALLHATFRQNYGCTHMIIGRDHAGVGDYYGPFDAQKIFDKIPYNADPKKRLLTQPMKIDWTFYCHKCDGMASLRTCPHTKKDRVIVSGTMVRKMLSEGKTLPDHFGRAESLKILADYYQHLDKSKKVTIKLQKFATGDAMK
B5: Cysteine synthase A (protein, UniProt C4M0H9 1-337)
chain: MEQISISSPRKRIYHNILETIGGTPLVELHGVTEHPRIKKGTRILVKLEYFNPMSSVKDRVGFNIVYQAIKDGRLKPGMEIIEATSGNTGIALCQAGAVFGYRVNIAMPSTMSVERQMIMKAFGAELILTEGKKGMPGAIEEVNKMIKENPGKYFVANQFGNPDNTAAHHYTANEIWEDTDGEVDIVVSAVGTSGTVIGVAEKLKEKKKGIKIIAVEPEESAVLEGKAKGPHGIQGIGAGFIPDIYKKEFVDEIIPIKTQDAWKMARAVVKYDGIMCGMSSGAAILAGLKEAEKPENEGKTIVIIVPSCGERYLSTDLYKIKDEGTKIQILDSLLNE
B6: 3-ketoacyl-CoA synthase (protein, UniProt C4M2E3 1-495)
chain: MSCEQDKERSLKDYWYPKEIGEQNEILPSLKANVNRGSPLTKGIDFTVTTILYSIPLIILYISYKTWYSFLDVSNGIFVENNKCVLIVGFVIVLGLIAGGVYYWATRRRQVLLVDFAVAWPDDNLKITADGVRDIIVKCGLFEQQYIDFQTKLLYRTGLGNETYLPRPFHEYPFKTTMALSREECAIVMKNCCDQLFAQTGIDPTKDIDIVICNCSLFNPTPSISAMLMNMYKLKQTCKNYNLAGMGCSAGLVSIDLARDLLNVYPNINLLVFSTENITQNWYDGKEKGMLISNTLFRMGGAAVLLSNKNSWRKKAKFELLTTVRIHHGKYDDSYHAVFQFEDGEGKVGVKIGRELLKCVTRALTQNMNILMPQVISYRDMFRFVIFFIKQKLGKIDAKETFMPNFRETFQAYCIHAGGRAIIDGLQENLKLTDEDCMPSRATLYRVGNTSSSSVWYEMKFIERIDTLKKGDKVWQVAFGSGLKCNSCVWRKICN
B7: Uncharacterized protein (EHI_047800) (protein, UniProt C4M7X1 1-304)
chain: MLFFLLVAFVSADFDVQSAGRLYDHTVLEANFQAKGVPNYFIFNATRQKELWTTVNPSDNAVIGTVELSFQYFVTNNLLNRLAVCIGKKEEIPNNYTGIGTNFINPQGSTYCKEQTSSTSGTLTLSFEKSYDEYYIAAYVQCKTEALCFSQDVIISTTCGKEQSSETIKSYDKEPYVILPNKDFRFSTEFEYGGSKSDKKVLNFVIYTPAKGDKNIYFAMKGKVIPTLFYTTNLTETCSGNACFHTNGAENGFLELSNINEKTPVKIMLQGNEKSKIQIKLSDGTDFAPATIISLMALLLFFML
B8: Xaa-Pro dipeptidase (protein, UniProt C4M0S1 1-471)
chain: MSKIIIPDIPKICKSTTSHFLKYFKANQKPQDSIIFLEGGLELPFYDTDGEYLFRQESNFHYLFGVKEAGFYGIVKMDGTRILFLPQLPETLQIFLGPNLHPEDVKRMYGVEEAYYDSQIEEVLSKLNPSMIYLYAKGVNSDSGSQPAPIRTKAVYKYNTNETELHDVLFEARTVKTKEEIDFMRLAINGTAEAHRACMKYCKPGMYEFELEAEFYRVAYGQYGMRNFGYFPICASGNKGATMHYGHAGHPNRKIMEDGEMVLMDVGTECHRYATDLTLTYPINGKFTEQQKTIYNIVLSCNRGCEAAMKPGVKWYNIHELSNKLMLKGLLEAGLIKGDVEEMYKNDVHFYFMPHGIGHLIGIDTHDVGGFNLGIPRSDNCSLKKCRSNRVLEAGNIYTVEPGIYFIPFLLESGFKNEQVKKYLVENEIRKYWNFGGVRIEDDVLVTEEGVEVLDKDIPRTVEEIEAFMKH
B9: Ras family GTPase (EHI_058090) (protein, UniProt C4M8B0 1-184)
chain: MPVKDYKIVVLGSGAVGKSSITVRFVQGIFLVKYDPTIEDSYRKQLDLDGQQYVLEILDTAGTEQFTAMRDLYMKTGQGFVLVYSIIAQSTYNDLDPIHDQIVRVRDTENVPIIVVGNKCDLESQRIVSQDDGKALADKYGAEFLEVSAKAEIRISDIFTTLIKRINAMNQTKPKKKSGGCSLF
B10: Grainin 1 (protein, UniProt C4MAF9 1-215)
chain: MSLFAIQAAADAWVAQHITAAYQADPLIQREWWYPLATSISGTEFKELQDFFVKTDKDKSGSLELDELKKAKFPGGIKLDENACRHLMRIFDVDLSGSIGFYEYLALMKFVKLATAVFTKFDKDKSGNLDEQEIYAALPELGFDLNMKACKILIQLCGKGLLTKKIQISQFISCAAYLGQIRTIYQHGFKQAQGDFNRATFSKFMNLTLMLMDDA
B11: 90 kDa heat shock protein (protein, UniProt C4M3S9 1-711)
chain: MLVFVTLLLLLLGVSAQEKKNFDVEVSRLMHLIIHSLYTNKEIFLRELISNASDAIDKLRFLCITDKSLNIDPSSFKIRIGIDAAKGSIYIIDNGIGMTKEELGKNLGTIAKSGTAEFIKKLESTEDHKNLIGQFGVGFYSSFLVAENVTVISRKAGLEESYAWESNGEGFVVRELKEDEVPMEEQGTKIILELKDKYFLDINVLKDLVKKYSEFIQFPIEMEITKKEEEEVEDTEAMKQEAQEKAKKRIEEGETSKTEEELIEEELKNVEVKHKFITKNITSWEAINVNKPIWMRSDVTDEEYNQFYKALTKDTKDPLAKIHFNTEGDSVFRALLYIPAEGPNPFAPKDPEKLKQMLRLYVRRVFVSGDFYTTLPDYLTFIRGVIDSDDLPLNVGRELIQENRHIDRIKRKVVRKVLQLIQDLSENNSTVFEAFMKEYSVQMKIGAITDVPNRGRIAKLLRYHSSISGNETMSFQDYIGRLKENQTEIYYVCADSLEEAKNSPVAQSAVNAGYEVIYMTDPVDEAASRSINTFEGKTLVDLGKDGFGVENDDKEYDELKEFIQENIKEISKVEVSNKLGNVAGVVISGKDGLTANMEKLIKAHATANKKDFNLENIKRVLIINGEHDIIIKINMLIKEDKKEQAIEFVKGMYNTALIQSGYTVTDSNEYAQWVQRMIEKELSEIEEVEKKEEKEEKTVGVDDIVNQKNEL
B12: Calmodulin (protein, UniProt C4LUQ9 1-153)
chain: MSRRRDEEVDQELVGELKDAFDMFDSSKKGYLDKDDVKKLFKTNGIRVTDEDLDAAFKEADADGDKKIECMEFINMMTGKMKTASTEQKLTEAFKVFDPEEKGVIDSKELTEALLNIGERCTTSEVGELKTVAENQEGQIRYELFIQAVFAKK
B13: Polyadenylate-binding protein (protein, UniProt C4M6Y2 1-514)
chain: MTTAQSNFSDFAENKTIFVSGLSLNVTESVLYGTVLKEFPNQVLNVHINKDNSHDTSIAYINMNTHDSAAQAISKLNGTIIEGRKVNMFWSLRDYKLRTQSETNLYVKGIKKEIGQQKMQEVFDKYGNTLSVKLSTNEKNESNGFGYVKYCTVDECKKVIAAKEEISKEIGEASFDIVKFEKQNKSLKTNIYIGNIDATVTEEQFLKYFETFGPIRKDASGKLAYKIVLDQAHQKNKGFVNYENVEDAQKAISSPKTGVLGSGEILIDYYKSKEERKKEWRNALFEIKNNVAGRYKDFNLYINTGKNHTTSDAEIREKLGSCGEIYSLQVKYYNKQPTEVAYCCFKDAQGAQNALAKASELGWTINKFMTKQEKFISQNMYAQTAYPINFFNFFQMFNPNVIVPQHPQNQNKEKDHRKKSTREESRKPKPIAEKQPKVEKAPIINEDMKNELGDQLYDYILSLGLYDEDLTGRITGVLLESIEYADLKKKIDTKSPELTVIIKEIVENLKKIQN
B14: GOLD domain-containing protein (protein, UniProt A0A8U0WP28 1-193)
chain: MIGLLLFITFTSTNAYRFIVPNRAQECVYSEIKDIEKVIVEIGVISGGNKDIAFTVTDPSGSNIYSIVYEEGKYNNYIYINTKTPGVYSFCFDNTMSLYTSKLVEFKLQLEQIQPATEQEVKSIKTKLQQVSTYLNDAKNDQRRLRIRENRNRQTGDATNLRTTILFLIGCFVIMAMGCFQVWYIKRQFKRGR

This assay deals with EhVps23 (E. histolytica (endogenous in HM1:IMSS trophozoites)). Briefly: affinity purification with mass spectrometry; immunoprecipitation with α-EhVps23 antibody and protein G-agarose from trophozoite lysates (10 mM Tris-HCl, 50 mM NaCl, protease inhibitors, freeze-thawing; pre-cleared with Protein-G, 2 h at 4°C); precipitate separated by gel electrophoresis, LC-ESI-HDMSE.
With B1, the binding entry is listed as “binds”.
Next, B2: “binds”; B3: “binds”; B4: “binds”.
Next, B5: “binds”; B6: “binds”; B7: “binds”.
In the case of B8 it was “binds”.
As to B9, the binding result is given as “binds”.
Consider B10, for which the binding result was “binds”.
In the case of B11 it was “binds”.
Next, B12: “binds”.
Next, B13: “binds”; B14: “binds”.

Values taken from article PMC8964110.
